In PubChem BioAssay AID2685 (National Center for Advancing Translational Sciences (NCATS), 2010):
In all, about 320,000 compounds went through this assay and about 2,100 (0.66%) were called active. The inconclusive results got no clear call from the source; some entries with a clear call stand among them for comparison. Calls come from the whole dose curve; as a rule, active = well fitted inhibition curve with a large enough effect in the signal ratio, with a control signal flat (not every such curve was filed as active); inconclusive = small, poorly fitted or top-dose-only effect, or effect the other way, or a change in a side signal; inactive = flat fitted curve, though single readings scatter; the % refers to the signal ratio. Where the call is inconclusive, the potency comes from a doubtful curve fit.

Assay: qHTS Assay for Lipid Storage Modulators in Drosophila S3 Cells
Conditions: BODIPY lipid droplet fluorescence, 18-24 h, cells fed with added oleic acid; lipid storage change, negative = inhibition: at 46.1 µM (top of the series) unless noted
Text: NIH Molecular Libraries Probe Production Centers Network [MLPCN] NIH Chemical Genomics Center [NCGC] MLPCN Grant: 1 R03 MH085686-01 Assay Submitter (PI): Beller, Mathias; Max-Planck-Institut fur Biophysikalische Chemie NCGC Assay Overview: Storing lipids as a reservoir for energy or the anabolism of elementary metabolites is a common feature of probably all cells and is conserved from bacteria to humans. The universal cellular lipid storage organelle is the so-called lipid storage droplet (LD). Although ubiquitous, LDs share a simple structure composed of a hydrophobic core that harbors the storage lipids, which is shielded by a droplet-specific phospholipid monolayer to which proteins are attached. The current model of LD biogenesis involves an incorporation of the lipid core into the membrane leaflets of the endoplasmic reticulum (ER) followed by a subsequent budding-like maturation of a LD, which ultimately pinches off. Once released, LD volume can increase by localized lipogenesis or fusion of existing droplet. Storage lipids are re-mobilized enzymatically by lipase activity. Lipase regulation in the adipocyte is heavily studied and involves multiple components including catecholamine signaling, the LD-associated proteins Perilipin and comparative gene identification (CGI-58) and at least two lipases named hormone sensitive lipase (HSL) and adipocyte triglyceride lipase (ATGL). LD regulation outside of the adipocyte is poorly understood and only few components are known. However, there is an urgent need to learn more about ectopic fat depots as mislocalized storage of lipids, for example in the liver or muscle, is an eminent health problem associated with insulin resistance or the metabolic syndrome. We developed a laser-scanning cytometer assay to enable 1,536-well screening and combined the results of the small molecules screen with an RNAi database based on lipid storage.
Triacsin C (Sigma-Aldrich T-4540), an inhibitor of long-chain fatty acyl CoA synthetase that blocks synthesis of triglycerides, was used as a positive control for lipid under-storage. A total of 23 nL of compound solution of different concentrations were transferred to the assay plates using a Kalypsys pin tool equipped with a 1,536-pin array containing 10-nL slotted pins (FP1S10, 0.457-mm diameter, 50.8 mm long; V&P Scientific). One microliter of oleic acid (400 uM) was added, and the plate was lidded with stainless steel rubber gasket lined lids containing pinholes. […] Fluorescence was detected by excitation of the fluorophores with a 488-nm laser on an Acumen Explorer (TTP Lab Tech). The total intensity in channel 2 (500-530 nm) reflected lipid droplet accumulation. Cells were detected using channel 3 (575-640 nm) with 5-um width and 100-um depth filters. The ratio of the number of objects in PMT channel 2 over the number of objects in PMT channel 3 was also calculated. Percent activity was computed relative to an internal control (100% inhibited lipid droplet deposition due to the presence of 20 uM Triacsin C), which was added to 32 wells/plate.
% is set by controls: 0 for no effect and ±100 for the full control effect; potency is the fitted concentration of half-maximal effect.

Row | SMILES | Potency | lipid storage change, negative = inhibition | outcome
1 | CCOC(=O)c1nnn(-c2nonc2N)c1CNc1ccc(C)c(Br)c1 | inconclusive: 29.1 µM [activator, single point] | – | –
2 | COc1ccccc1N1CCN(C(=O)c2cc3c(=O)n4cccc(C)c4nc3s2)CC1 | inconclusive: 0.116 µM [falling, single point] | – | –
3 | CC1=C(C(N)=O)C(c2ccc3c(c2)OCO3)n2nc(-c3cccc(C)c3)nc2N1 (stereo not given) | – | inconclusive: 0.733% | –
4 | O=C(Cn1c(=O)oc2ccccc21)Nc1ccc(Cl)cc1Cl | – | inconclusive: -14% | –
5 | CCN(CC)S(=O)(=O)c1cccc(-c2nnc(SCCOc3ccc(Cl)cc3)o2)c1 | – | inconclusive: 36.1% | –
6 | CCn1c(CNC(=O)c2ccc3c(c2)OCO3)nnc1SCC(=O)Nc1ccccc1F | – | inconclusive: 1.28% | –
7 | Cc1cccc(-c2noc(CN(C)C(=O)c3ccc4c(c3)OCO4)n2)c1 | – | inconclusive: 93.8% | –
8 | CCOC(=O)C1CCCN(CC(=O)c2c[nH]c3ccc(C)cc23)C1 (stereo not given) | – | inconclusive: 7.57% | –
9 | CN1/C(=C\C(=O)Nc2ccc(F)cc2)C(C)(C)c2ccccc21 | – | inactive: -15.1% | –
10 | COc1cccc(CN2CCC(Oc3ccc(C(=O)NCc4ccccn4)cc3)CC2)c1 | inconclusive: 6.51 µM [activator, single point] | – | –
11 | COc1cc(OC)cc(C(=O)O/N=C(\N)c2ccncc2)c1 | – | inconclusive: 6.9% | –
12 | Cn1c(=O)n(C)c2cc(NC(=O)c3ccc(F)cc3)ccc21 | – | – | inactive [at 46.1 µM]
13 | Cn1nc(-c2ccccc2)c(/C=N/O)c1Cl | – | inconclusive: 11.4% | –
14 | CCn1c(SCC(=O)N2CCN(c3ccccc3)CC2)nnc1-c1cc2cc(Cl)ccc2o1 | inconclusive: 4.11 µM [activator, single point] | – | –
15 | CC1CC(NC(=O)c2cc3c(=O)n4ccccc4nc3n2C)CC(C)(C)C1 (stereo not given) | active: 18.4 µM | – | –
16 | COc1ccc(F)cc1C(=O)COC(=O)c1n[nH]c(=O)c2ccccc12 | – | inconclusive: 21.9% | –
17 | COC(=O)C1C(c2ccccc2)C=CC(c2ccccc2)C1C(=O)O (stereo not given) | – | inconclusive: -25.9% | –
18 | Cc1nnsc1C(=O)Nc1cccc(Cl)c1C | – | inconclusive: 0.963% | –
19 | CCOC(=O)c1c(C)[nH]c(C)c1C(=O)COC(=O)c1ccc(OC)c(OC)c1 | – | inconclusive: 19.3% | –
20 | COc1ccc(Br)cc1/C=C/c1ccc2cccc(O)c2n1 | – | inconclusive: -27.8% | –

A few values from the results shown:
CCOC(=O)c1c(C)[nH]c(C)c1C(=O)COC(=O)c1ccc(OC)c(OC)c1 – lipid storage change, negative = inhibition: inconclusive: 19.3%
CCn1c(CNC(=O)c2ccc3c(c2)OCO3)nnc1SCC(=O)Nc1ccccc1F – lipid storage change, negative = inhibition: inconclusive: 1.28%

Next structures:

Row | SMILES | Potency | lipid storage change, negative = inhibition | outcome
21 | CN(C)c1ccc(C(C(=O)NCC2CCCO2)N(C(=O)c2snc(C(N)=O)c2N)c2ccc3c(c2)OCO3)cc1 (stereo not given) | – | inconclusive: 8.45% | –
22 | CC1CCN(S(=O)(=O)N2CCC(C(=O)NCCN3CCOCC3)CC2)CC1 | – | inconclusive: 3.58% | –
23 | Cc1ccc(S(=O)(=O)c2nc(S(C)(=O)=O)sc2NCC2CCCO2)cc1 (stereo not given) | – | inconclusive: -42.3% | –
24 | CCn1c(=O)n(CC)c2cc(N3CCCC3)c(NC(=O)c3cc(Cl)ccc3OC)cc21 | active: 5.8 µM | – | –
25 | CCc1cccc2c(C(=O)COC(=O)c3cccc(S(=O)(=O)N(C)C4CCCCC4)c3)c[nH]c12 | – | inactive: -20% | –
26 | CCCCOC(=O)Cc1c(O)c2ccccc2[nH]c1=O | inconclusive: 13 µM [falling, partial curve] | – | –
27 | CC(=O)Oc1ccccc1/C=C/c1nc2ccccc2c(=O)o1 | – | inconclusive: 10.3% | –
28 | O=C(CC1Oc2ccccc2NC1=O)NCCCN1CCOCC1 (stereo not given) | – | inconclusive: -7.24% | –
29 | CCCC(C)(C)NC(=O)CCCCC(=O)NC(C)(C)CCC | – | inconclusive: -14.9% | –
30 | COc1cccc(C(C(=O)NC(C)(C)C)N(C(=O)CCC(=O)Nc2cc(C)on2)c2ccc3c(c2)OCCO3)c1OC (stereo not given) | – | inconclusive: -55.2% | –
31 | CCOC(=O)c1c(S(=O)(=O)N2CCN(c3ccc(C(C)=O)cc3)CC2)c(C)n(C)c1C | inconclusive: 5.17 µM [falling, single point] | – | –
32 | FC(F)(F)c1ccccc1NC(=S)N1CCCCCC1 | inconclusive: 29.1 µM [activator, single point] | – | –
33 | COC(=O)c1ccc(C2C(Oc3ccc(OC)cc3)C(=O)N2CCc2ccc(OC)c(OC)c2)cc1 (stereo not given) | inconclusive: 29.1 µM [falling, single point] | – | –
34 | Cc1nn(C)c(C)c1S(=O)(=O)N1CCC(CO)(Cc2ccc(Cl)cc2)CC1 | – | inconclusive: -22.6% | –
35 | O=C(CN1CCOCC1)N/N=C/c1ccc(-c2ccc(C(=O)O)cc2)o1 | – | inconclusive: -10.4% | –
36 | CC1CCCC(C)N1C(=O)Cn1nnc(-c2ccc([N+](=O)[O-])cc2)n1 (stereo not given) | – | inconclusive: 17% | –
37 | COc1ccccc1NC(=O)CN1C(=O)C(C)Oc2ccccc21 (stereo not given) | – | inconclusive: 5.8% | –
38 | CSc1nsc(SCC(=O)NCc2ccc(C)cc2)n1 | – | inconclusive: -51.2% | –
39 | Cc1ccc(-c2nnc3n2N=C(c2ccccc2Br)CS3)cc1 | – | inconclusive: 26.7% | –
40 | NC(=O)c1ccccc1NS(=O)(=O)c1ccc(S(=O)(=O)N2CCCC2)cc1 | – | inconclusive: -27.4% | –
